Test results from PMC9068651.
These are yes or no findings as the source states them, for the method shown.

Target: Shank1 PDZ domain (rat, G654-K768) (rat) (UniProt Q9WV48)
Test: NMR 15N R1 and R2 relaxation (rotational correlation time); 200 µM protein, 50 mM NaPi, 20 mM NaCl, 0.02% NaN3, pH 7.4, 8% D2O, 298 K, 700 MHz; τc from Tensor2 compared with HydroPro and with estimates from sequence length for monomer and dimer; both purified

binding: no binding (tested: 200 µM)
B1: Shank1 PDZ domain (rat, G654-K768) (domain or fragment, UniProt Q9WV48 654-768)
chain: GSHMGSDYIIKEKTVLLQKKDSEGFGFVLRGAKAQTPIEEFTPTPAFPALQYLESVDEGGVAWRAGLRMGDFLIEVNGQNVVKVGHRQVVNMIRQGGNTLMVKVVMVTRHPDMDEAVHK
